Experimental data as given in patent publication US4177350A, “Imidazole ethyl oxyalkoxy derivatives and thio analogues thereof” (Siegfried Aktiengesellschaft, priority 1977, dated 1979).
Some of these results come from one statement about several compounds together.

system: mice; experiment: oral toxicity LD50 per os, mice

**Q.** With Clc1ccc(SCCCCCOC(Cn2ccnc2)c2ccc(Cl)cc2Cl)cc1 (stereo not drawn) [Example 37] as the compound, how does the “oral toxicity compared with ECONAZOLE” value read?
**A.** substantially decreased oral toxicity

**Q.** With Clc1ccc(OCCCCCOC(Cn2ccnc2)c2ccc(Cl)cc2Cl)cc1 (stereo not drawn) [Example 38, 1-{β-[5-(p-chlorophenoxy)-pentoxy]-2,4-dichlorophenethyl}-imidazole] as the compound, how does the “oral toxicity compared with ECONAZOLE” value read?
**A.** substantially decreased oral toxicity

**Q.** Which “oral toxicity compared with ECONAZOLE” value does the source give for Clc1ccc(OCCCCCSC(Cn2ccnc2)c2ccc(Cl)cc2Cl)cc1 (stereo not drawn) [Example 39, 1-{β-[5-(p-chlorophenoxy)-pentylthio]-2,4-dichlorophenethyl}-imidazole] here?
**A.** substantially decreased oral toxicity
